Results taken from PubChem BioAssay AID1508600 (Functional Genomics Laboratory (NCATS/FGL), 2020).
Out of some 53,000 sequences screened, about 3,700 (7%) were called active.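 The calls were made as follows: active = gene knockdowns whose robust z-score for IL-1 alpha signal is at least 2 or at most -2, so actives lie on both sides; inactive = the rest.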 This is one part of the list.

Assay: Components of the Cytosolic LPS Sensing Pathway: Gene Identification via Genome-wide siRNA Screen;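 also: robust z of the log signal after scaling to non-targeting control siRNA wells of the plate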
Settings: RAW264.7 macrophages, IL-1a HTRF, actives lie on both sides, screened at 100 nM (by protocol), cells primed 5 h with Pam3CSK4 first
Summary of the method: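 Using IL-1a HTRF as read-out, the screen measured release from RAW264.7 cells after 48h siRNA knockdown (100 nM), 5 h Pam3CSK4 priming and 24 h cytosolic LipidA. Values were expressed relative to negative-control wells as robust z-scores.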

z-score, inactive:
GGACCAUUUUCUAACAGACTT against Slc12a9 0.0659
CCGAUCUUUCCCUUAUCUUTT against Vamp2 0.127
GGUAAUGCCCUAUACUUCATT against Sgcd 0.684
GCUUCAGGAAGAGUUGCAGTT against Asb7 -0.997
GCACAAAUGGCACUAUUGATT against R3hcc1l -0.532
GCCGGGUUCGAGAGUUAAGTT against Ptpn11 1.06
GGGCUUUAUAAGACAGUCUTT against Zfp786 -0.11
GGAAAACUACUGGAACUGGTT against Irgm1 0.415
CGAUUGCUUUUCGAGACUGTT against Olfr1404 -1.73
GGAUCAGCAUGUUUGGAUUTT against Olfr653 0.314
CAUAGAGUGCCUGAUUUUATT against Olfr237 -0.497
CCUAUGAUUCCAAAAAGGUTT against Eogt -1.19
GGGAGUGUUAAAGAGAGUGTT against Ncmap 0.0787
GGAGUUUGUCUUCUCUUUCTT against Foxf1 0.0377
GGGAGAUGAACCUCUCAGATT against Pbld1 0.124
CCAGGUUCUAUCUACCUACTT against Igfn1 -1.81
GGAGGGAAAUGUUUUAUGUTT against N4bp1 0.968
GGAGAAUUAGCCAACACAGTT against Ywhah -1
GGGUUACUUAUUAUAUCGATT against Mycbp2 0.888
GGAUUUCAAGCAAGAUUACTT against Mfn1 -0.191
GCCACACAGAUACCAGAUATT against Mettl27 1.59
GGAUGGAUCUUCUUGAUUATT against Tyw3 -0.0584
GGAACUCCUCAAACGAAGGTT against Bmp3 0.553
GGCUCUUUCACACCUGGUATT against Scgb3a2 0.545
GGCAAACAUGAAUCUUACCTT against Cyth4 -0.375
GCUCAGAGCAUGUUGGUGGTT against Dstyk -0.805
GGUAAAGAUAAUUGACAACTT against Prss29 -1.11
GCUAAAAGGUAAGUACUUCTT against Lncpint 0.981
GGAACUCGAGUUUAUCCAUTT against 1700020N01Rik 0.813
GGCCAUCUCUUUUAUUGUATT against Alg13 -0.547
GCUGUCCCGAGCUGAACAATT against Nell2 0.286
GGGAUACAAUGUAACAUACTT against L1cam -0.0915
GCAUUCGAAGCUCUUCUAATT against 4930474M22Rik -1.89
GGGAGGAUACCUUCUAUGUTT against Atf6b -0.43
GGACAAACAAGUGAAAUACTT against Morf4l1 0.209
GCUGUGUUCUAACUAACUATT against Aldh9a1 0.039
GAACUACCUGUGUAAACCUTT against Unc119b 0.356
CCUGAGAUUGGCAAUAUAGTT against Mettl14 0.683
GGGAAUGCUCCAAACGACATT against Bsg 1.04
GGAUACCUAUAGAAAAUGUTT against Creld2 -1.29
GAUUUAGCUUGGUGAACCGTT against Thoc6 0.754
GGCACUAGGUGGAGUCAUUTT against Slco1b2 -0.0321
CCUGGCAGUAGGUUUGUAATT against Plcd3 0.235
GGUUAAAGGAGCAGUCUAUTT against Dbn1 0.636
CCGAGUAAGAAGGACGAUATT against Sh3tc1 -0.984
GGGAGAAUUACCAAGAUCUTT against Elac1 -0.0948
GGCCAUAUUUGUGACUGUGTT against Hao1 -1.58
GGUUCUUGUGUUCAGAUGGTT against Mcmdc2 -0.834
CCAGAUAAGCCUCAUCAAUTT against Scn5a -0.163
GGAUCUCGAGUCUCAUCUCTT against Ccdc166 0.851
CCCAAAUUGAAAGGGCAGGTT against Serpina3h -0.822
GGAACAUAUGCUCAGAAGATT against Lce1e -1.68
GGAAGAAUUCUCAAAGAAUTT against Scyl3 -0.343
GACAUACAAUCUCCUACAUTT against Olfr478 0.818
GGCAAUGUACAGAUACUUGTT against Pramel39 0.798
GGGAUAUGUGAUUAUUUACTT against Ankle2 -0.564
GGAACUGUGAGACUUUUAGTT against Rabgap1 0.532
CCACUCCUGUUGAUAAAAATT against Pex7 -1.48
GCCUAAGGAUGAGUUUCAATT against Uqcr10 1.01
GGUUGUUCCUACAUGUCUUTT against Irf3 -1.28
CCUUCAGCUAUCUAACUUCTT against Nepn -0.0375
GGACAUGGAUGACACUGAUTT against Tsr3 -1.99
CCAACAAGUUGCAUGCCUUTT against Mbl1 0.259
GGCAAUGAAGGAAACCAAATT against Mpp1 -1.1
GGGCAUCCGGCUUUCAGAATT against Chchd3 0.974
GGGAAUGUGACUACUCCAUTT against Tln2 1.73
GGAUAUUAAAUUCUCAUCCTT against Pus1 -0.573
GCCAAAGCUUAAAAAGAAGTT against Gemin5 -1.4
GGCACUCUCUCAGAAUUUGTT against Rtn4ip1 0.0411
GGCCCAUAGGUUUCAAAUATT against Ccl22 -0.152
CCCUCAGAACCAUUGAGAATT against Max 0.1
GGACAGAUGAAGCUGCAUUTT against S100a4 -0.422
GCGUGAACACCUGAGGAUUTT against Rchy1 -0.323
GCGGUCCACUCCUGUUUGATT against Ypel1 -1
GGAUCUGUCUACUUUUCCUTT against Hikeshi 0.777
GGCUAUAUCAAUGAAUUUGTT against Polr3b 0.393
CCGAUCCAAUGCACCAAACTT against Ostc -0.131
GGGACUGGUCGUUUAGGAUTT against Tmie -0.199
GGAAAUGACAGGAAAGAUUTT against Zfp35 0.585
GGAUGAUGCUUCUUGAAAATT against Sfrp4 -0.78
GGACUUCAAGGAUGCCUACTT against B3galt5 -0.311
GCUUCCUCGGUCAAAUAAATT against Cetn1 1.12
GGCUGGAGAAGUAAUGAUATT against Sp100 0.62
GGUAAACACUACCCUAACATT against Cpeb3 -1.42
CCAGAAUGAUUAAUAACGGTT against Nsun3 -0.675
GGACCAGUUACAGAUGUGGTT against Tor1a -0.952
GGAGCACCAAGAAUUUUUUTT against Bcl2l10 0.663
GGCCUCCAAGAUUGUAGGUTT against Prtn3 -0.661
GGGAAAGAAUGGUGUGGAATT against Dlx4 -1.97
GGGUGAUCAUUCAUCAGUUTT against Mettl7b 1.37
GGACAAAUUCUACAUCAGCTT against Adam8 0.0533
GGAAAGUCCACUCUAGUCCTT against Dusp16 -1.48
GGGUGAGGAAUAUUAAUUCTT against Tuba1c 0.733
GGAAUUAGACUUCUGCGUCTT against Adamts15 -0.00667
CGAUACGCUACUGCAGGUGTT against H1f10 -1.1
GGUACUAUCACAUCAUUAATT against Olfr1106 0.935
GGAACCUCCUUAUUCAAUGTT against Rspry1 0.0592
GGUCUCUCCCAUGUUAAUCTT against Lcn3 0.409
GGUCCUUCUUGUGUAGUCATT against Plac1 -0.524
GUUCCCGUUCUACGAGAAGTT against Foxl2 1.22
GGUGUAUAGCUGUUGUGGGTT against Dennd2d -1.41

Looked up one by one from the entries so far:
z-score, inactive:
GGAUUUCAAGCAAGAUUACTT against Mfn1 -0.191
GGAUCAGCAUGUUUGGAUUTT against Olfr653 0.314
CCGAUCUUUCCCUUAUCUUTT against Vamp2 0.127

At a glance, part of the list above.
z-score, inactive:
GGAUACCUAUAGAAAAUGUTT against Creld2 -1.29
GAUUUAGCUUGGUGAACCGTT against Thoc6 0.754
GGCACUAGGUGGAGUCAUUTT against Slco1b2 -0.0321
CCUGGCAGUAGGUUUGUAATT against Plcd3 0.235
GGUUAAAGGAGCAGUCUAUTT against Dbn1 0.636
CCGAGUAAGAAGGACGAUATT against Sh3tc1 -0.984

Following part.

z-score, active:
GGGUAAUUAUUGUUUUCUGTT against Eif4e3 2.19
GGAGGAGACUCAGCAGAUUTT against Gzmn 2.29
GGAGGAACCUCAGAAACAGTT against Knstrn -2.19
GCACUUUAAAAGAAUCACUTT against Slc2a12 2.11
GGCUUUCAUGUGCCGUUUUTT against Gstm5 2.39
GGAAUUCAUGAACUACUAUTT against Capsl -2.07
